Here are results for 1 substance from article PMC8402725.

Protein sequences, listed by entry. Tags and fused reporters are not part of them.
UniProt Q05322: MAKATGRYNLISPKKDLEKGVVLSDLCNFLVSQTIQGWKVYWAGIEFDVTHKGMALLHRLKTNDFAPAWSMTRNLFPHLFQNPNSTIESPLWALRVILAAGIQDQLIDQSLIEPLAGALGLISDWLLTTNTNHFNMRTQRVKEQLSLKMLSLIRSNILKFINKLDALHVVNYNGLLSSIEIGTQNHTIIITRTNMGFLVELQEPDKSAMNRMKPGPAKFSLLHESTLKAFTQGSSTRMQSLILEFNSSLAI
UniProt P52294: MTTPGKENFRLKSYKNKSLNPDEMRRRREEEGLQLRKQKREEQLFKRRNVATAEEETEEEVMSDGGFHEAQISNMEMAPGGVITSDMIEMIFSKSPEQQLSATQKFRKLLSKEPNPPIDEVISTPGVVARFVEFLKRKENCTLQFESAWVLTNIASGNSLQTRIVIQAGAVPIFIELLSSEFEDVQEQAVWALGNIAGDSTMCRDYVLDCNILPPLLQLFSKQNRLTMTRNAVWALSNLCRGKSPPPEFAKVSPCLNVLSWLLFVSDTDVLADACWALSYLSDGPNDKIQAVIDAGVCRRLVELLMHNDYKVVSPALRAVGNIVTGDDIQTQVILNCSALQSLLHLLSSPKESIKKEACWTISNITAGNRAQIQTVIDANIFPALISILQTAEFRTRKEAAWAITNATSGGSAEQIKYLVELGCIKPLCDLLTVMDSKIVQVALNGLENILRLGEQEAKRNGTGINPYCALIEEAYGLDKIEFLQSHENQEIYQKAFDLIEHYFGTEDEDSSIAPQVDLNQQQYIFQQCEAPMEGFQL

These are yes or no findings as the source states them, for the method shown. In cells and extracts the contact can be indirect. Some results given as binding are weak or reduced against the parent protein; the word gives no strength.

The assay addresses EBOV VP24 fused to GFP (GFP-VP24, full-length, residues 1-251) (Ebola virus (EBOV, species Zaire ebolavirus)) (UniProt Q05322). The assay is described as follows: co-IP.

In the case of “FLAG-tagged karyopherin alpha 1 (FLAG-Kα1) (from UniProt P52294 1-538)”, the binding entry is “binds”.
